# Measurements from patent publication US12024571B2, “Anti-erythropoietin receptor peptide” (Epo-Med Inc., priority 2018, dated 2024).
# Some of these results come from one statement about several compounds together.
# System: human liver cancer derived HepG2 cells
# Experiment: Lethal effect of synthetic peptides on HepG2 cells (Trypan blue positive cell count)
# Format: cell-based
# Conditions: 120, 60, 30 or 15 μM, 24 hours; FIGS. 34 to 37
substance,measurement,value
"Ac-SCH(3,4-difluoro-Phe)GPLT(2-quinolylalanine)VCK-NH2 [GT-11304]","HepG2 cell killing effect, strength in words",potent
Ac-SCHYGPLTWVCK-NH2 [GT-11261],"HepG2 cell killing effect, strength in words",potent
Ac-SCH(p-fluoro-Phe)GPLT(2-quinolylalanine)VCK-NH2 [GT-11306],"HepG2 cell killing effect, strength in words",potent
Ac-SCHYGPLT(2-quinolylalanine)VCK-NH2 [GT-11308],"HepG2 cell killing effect, strength in words",potent
Ac-SCH(p-fluoro-Phe)GPLT(2-benzothiazolylalanine)VCK-NH2 [GT-11307],"HepG2 cell killing effect, strength in words",potent
"Ac-SCH(3,4-difluoro-Phe)GPLT(8-quinolylalanine)VCK-NH2 [GT-11303]","HepG2 cell killing effect, strength in words",potent
"Ac-SCH(3,4-difluoro-Phe)GPLT(2-benzothiazolylalanine)VCK-NH2 [GT-11305]","HepG2 cell killing effect, strength in words",potent
Ac-SCH(p-chloro-Phe)GPLTWVCK-NH2 [GT-11259],"HepG2 cell killing effect, strength in words",potent
